What was measured:
[1] = Reversed-phase TLC on RP-2 silanized plates (Rf); format: physicochemical; details: silica gel 60 RP-2 F254 silanized; water:methanol:acetonitrile 60:20:20, ammonium acetate pH 7.4
[2] = Normal-phase TLC on silica gel 60 F254 (Rf); format: physicochemical; details: water:methanol:acetonitrile 60:20:20, ammonium acetate pH 7.4
[3] = HPLC on IAM (immobilized artificial membrane) column, retention factor; format: physicochemical; details: IAM.PC.DD.2 column
[4] = plasma; cited from earlier work

SMILES	RP (Rf from RP-2 TLC plate) [1]	NP (Rf from NP TLC plate) [2]	k(IAM) retention factor ([3]; 10 mM phosphate buffer pH 7.4:acetonitrile 80:20)	logkIAM ([3]; logarithm of retention factor, phosphate buffer pH 7.4:acetonitrile 80:20)	PB (protein binding) [4]
CCn1cc(C(=O)O)c(=O)c2cc(F)c(N3CCN(C)CC3)cc21 [pefloxacin]	0.76	–	–	–	–
CCC[C@@H]1C[C@@H](C(=O)N[C@@H]([C@H]2O[C@H](SC)[C@H](O)[C@@H](O)[C@H]2O)[C@H](C)Cl)N(C)C1 [clindamycin]	0.25	0.69	11.34	1.05	0.93
